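Enzyme assay of tryptophanyl-tRNA synthetase; the read-out is not stated. Target: Tryptophan-tRNA ligase, Mycobacterium tuberculosis (UniProt P9WFT3). Compounds at 10 µM. Higher most likely means stronger inhibition; the record gives no direction and few retests gave an IC50. About 65,000 compounds were tested under these conditions; 0.098% (about 64) showed 50% or more at least once.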

Sequences of proteins named here, by UniProt entry; tags and fusion partners are left off.
UniProt P9WFT3, whole entry: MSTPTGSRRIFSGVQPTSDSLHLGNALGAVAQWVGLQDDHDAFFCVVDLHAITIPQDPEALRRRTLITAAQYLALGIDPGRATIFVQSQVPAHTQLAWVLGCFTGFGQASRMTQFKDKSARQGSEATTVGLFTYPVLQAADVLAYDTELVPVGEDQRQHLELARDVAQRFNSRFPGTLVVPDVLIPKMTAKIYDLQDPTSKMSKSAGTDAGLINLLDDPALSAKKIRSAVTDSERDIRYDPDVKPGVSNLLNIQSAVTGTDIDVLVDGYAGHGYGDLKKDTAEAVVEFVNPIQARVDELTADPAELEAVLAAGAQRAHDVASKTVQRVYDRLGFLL

Values are the deposited “Percent Effect”, in %. How 0% and 100% were set is not recorded. Most values in the screen are low, and negative values occur. This is an unselected part of the compounds tested.

structure,percent effect
CSc1ccc2cc(CN(C)CCCN(C)C)c(=O)[nH]c2c1,-4.211
Cc1ccc(N2CCCC(NC(=O)C(C)(C)C#N)C2=O)cc1 (stereo not shown),-2.457
COCCNC(=O)Cn1cc2c(n1)c(C)nn2C,3.042
Cc1nc2cc(O)nn2c(C)c1CCC(=O)N(C)Cc1cscn1,11.97
CCc1nnc(CN(CC)C(=O)CCc2scnc2C)o1,2.573
O=C1[C@H]2CN(Cc3ccc(F)cc3)C[C@H]2CN1CCN1CCCC1,8.866
O=C(Cc1ccc(F)c(F)c1)NC1COc2ccccc2C1=O (stereo not shown),-3.901
Cc1nc(N2CCCC2)nc2c1CCN(C(=O)C1CCCC1)CC2,-1.005
COc1ccc(CC(=O)N2CCCC(n3cc(C)cn3)C2)c(OC)c1 (stereo not shown),-1.847
c1ncc2c(n1)CN(Cc1nc(-c3ccsc3)no1)CC2,-5.834
O=C(CS(=O)(=O)Cc1ccccc1)NCc1ccccc1F,5.568
O=C(c1ccncc1F)N1Cc2nc(CN3CCCCC3)oc2C1,-6.787
CCCc1nc(C)c(C(=O)NCCn2nc3ccccn3c2=O)s1,28.06
COc1ccc2c(c1)nc1n2[C@@H](CNC(=O)c2ccccn2)COC1,-3.087
CC(Cc1cn(CCc2nnn[nH]2)nn1)c1ccccc1 (stereo not shown),-5.795
OC1(CNCCSCc2ccccc2)CCCNC1 (stereo not shown),-4.613
O=C(c1cncc(F)c1)N1CCC(c2ncc[nH]2)CC1,-8.614
CC(C)COC(C)C(=O)N1CCCCCC1 (stereo not shown),-3.649
Cc1noc(CNc2ccccc2C(=O)N2CCCC(O)C2)n1 (stereo not shown),6.408
CC(C)c1nc(C2CCCN(C(=O)c3ccc4nccn4c3)C2)no1 (stereo not shown),-0.2346
COc1ccccc1CN1C[C@@H](F)[C@@H](OCc2nc3ncccc3[nH]2)C1,-3.28
NC(=O)CN1CCC(NC(=O)COCCOc2ccccc2)CC1,-0.4045
CSCC(CCO)Nc1nc(C(F)F)nc2ccccc12 (stereo not shown),-0.7282
CS(=O)(=O)N1CCCC12CCCN(C(=O)c1ccncc1)C2 (stereo not shown),-1.614
FC(F)(F)COc1ccc(CSCc2ccon2)cn1,-3.286
CC(C)c1noc(-c2cccc(OCC(N)=O)c2)n1,3.053
c1ccc(CCN2CCn3cc(Cn4cccn4)nc3C2)cc1,0.000006
CC(C)n1ncc2c1NC(=O)C(C#N)C21CCCC1 (stereo not shown),-1.574
COc1ccc2nnc(CCCC(=O)NCCC3=CCCCC3)n2n1,-3.216
CCOc1cc(F)ccc1NS(=O)(=O)c1cc(C)c(C(=O)O)s1,2.012
Cc1cc(-c2cnc(N3CCSCC3)nc2C(C)C)on1,-8.551
O=C(CC1CCCCC1)N1CCC(O)(C(F)(F)F)C1 (stereo not shown),-1.917
Cc1cc(NC(=O)C(C)N2CCN(c3ccccc3F)CC2)no1 (stereo not shown),1.633
CC(C)C(=O)NCC(=O)N(C)C1CCCN(C2Cc3ccccc3C2)C1 (stereo not shown),2.09
CC1(c2ccccc2)CCCN(Cc2cncn2C2CC2)C1 (stereo not shown),1.754
CN(Cc1cccnc1)C1CC2(CCN(C(=O)c3ccnnc3)CC2)C1,-1.984
Cc1nn(C)cc1C1CC(=O)Nc2c1cnn2C (stereo not shown),2.644
CCC(C(=O)NC1(COC)CCCC1)n1cccn1 (stereo not shown),3.123
Cc1noc([C@@H]2C[C@H]3OCC[C@H]3N(S(=O)(=O)c3ccccc3)C2)n1,2.768
O=C1CCc2cc(-c3csc(CCN4CCCC4=O)n3)ccc2N1,3.597
FC(F)(F)c1ccc(CNC[C@H]2COCc3nc4cccnc4n32)cc1,-1.58
CN(C)CC1(O)CCN(S(=O)(=O)c2ccc(F)cc2)C1 (stereo not shown),0.2508
CCc1ncc2c(n1)CN(C(C(N)=O)c1ccccc1)CC2 (stereo not shown),0
Cc1ccc(-c2cc(CN3CCCC(Cn4cncn4)C3)on2)cc1 (stereo not shown),-4.182
Cc1cccc(CN(Cc2ccccc2)Cc2nccs2)n1,0.06915
Cc1ccc(CNC(=O)NC2CCCc3c2cnn3CCO)cn1 (stereo not shown),-0.07241
Cc1noc([C@@H]2CCO[C@@H]3CCN(Cc4ccc(C)s4)C[C@@H]32)n1,0.2292
CC(C)c1nn(C)c(N(C)C)c1CNC1CCCCNC1=O (stereo not shown),-8.566
Cc1csc(CN(C)S(=O)(=O)c2ccc(C)c(N(C)C)c2)n1,0.3812
O=C(CCc1ccccn1)NCC(O)c1ccc(Cl)cc1Cl (stereo not shown),-0.000006
CNC(=O)[C@H]1CC[C@@H]2[C@@H](CCN2c2ncccn2)O1,12.44
CCCN(C(=O)CN1CCN(CCO)CC1)C1=CCCCC1,-0.4817

Repeated from the top, 5 entries:

With CSc1ccc2cc(CN(C)CCCN(C)C)c(=O)[nH]c2c1 the screen gave -4.211%.
With Cc1ccc(N2CCCC(NC(=O)C(C)(C)C#N)C2=O)cc1 (stereo not shown) the screen gave -2.457%.
With COCCNC(=O)Cn1cc2c(n1)c(C)nn2C the screen gave 3.042%.
With Cc1nc2cc(O)nn2c(C)c1CCC(=O)N(C)Cc1cscn1 the screen gave 11.97%.
With CCc1nnc(CN(CC)C(=O)CCc2scnc2C)o1 the screen gave 2.573%.

The values are deposited in ChEMBL (CHEMBL3988442, “University of Dundee, Small-Polar-MMV Screening Library” (2021)).